Test results: PubChem BioAssay AID328 (DTP/NCI, 2004)
The list does not hold the whole screen: it gathers tests that were run many times, whatever their T/C, doses with no T/C, and many T/C values between a quarter and a half above the control. Further doses and runs are listed elsewhere. T/C: endpoint of the treated group in % of that of the vehicle group. Some entries give survivors of the animals treated and no T/C: the source files T/C as zero there, which appears to mark a toxic dose or a test without result, not a measured value. Some survivor counts are full or nearly so, which does not show that the dose was tolerated: the source hardly ever lists a survival T/C far under the control, and the zero likely stands for such cases as well. Survivors were counted at the toxicity check, usually on the fifth day, unless a day is given; later deaths do not show. Schedules are NCI's codes, read here as Q, the interval in days (D) or hours (H), X, the number of doses. Where survival is the endpoint, the PubChem record calls one and a half times the control and up active, and a quarter to a half above the control has no call in these data; cut-offs in other NCI protocols can differ. Some T/C values are followed by the survivors on the day toxicity was checked, most often the fifth; without a count, all were alive then. Some entries hold several experiments; their values stand side by side, smallest first. Residues, ends and D or L forms follow the SMILES beside them. *: point of attachment. Bn = c1ccc(C*)cc1

System: BDF1 mice, P388 leukemia ip, median survival T/C
Experiment: NCI In Vivo Anticancer Drug Screen. Data for tumor model P388 Leukemia (intraperitoneal) in B6D2F1 (BDF1) mice
Conditions: T/C endpoint: median survival time, higher T/C = longer survival
Method in brief: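 Steps: implant the tumour, treat one group with compound and another with vehicle, record survival, then divide treated by control.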

[1] = dose: 400.0 mg/kg/injection, schedule: Q04DX003 (ip), vehicle: saline with Tween-80
[2] = dose: 100.0 mg/kg/injection, schedule: Q04DX003 (ip), vehicle: saline
[3] = dose: 200.0 mg/kg/injection, schedule: Q04DX003 (ip), vehicle: saline
[4] = dose: 100.0 mg/kg/injection, schedule: Q01DX009 (ip), vehicle: Klucel (hydroxypropylcellulose) (HPC)
[5] = dose: 50.0 mg/kg/injection, schedule: Q01DX009 (ip), vehicle: saline with Tween-80
[6] = dose: 100.0 mg/kg/injection, schedule: Q01DX009 (ip), vehicle: saline with Tween-80
[7] = dose: 200.0 mg/kg/injection, schedule: Q01DX009 (ip), vehicle: saline with Tween-80
[8] = dose: 200.0 mg/kg/injection, schedule: Q01DX009 (ip), vehicle: Klucel (hydroxypropylcellulose) (HPC)
[9] = dose: 100.0 mg/kg/injection, schedule: Q04DX003 (ip), vehicle: Klucel (hydroxypropylcellulose) (HPC)
[10] = dose: 400.0 mg/kg/injection, schedule: Q01DX009 (ip), vehicle: saline with Tween-80
[11] = dose: 200.0 mg/kg/injection, schedule: Q04DX003 (ip), vehicle: saline with Tween-80

In the case of `CC(=O)Nc1ccc(/C=N/Nc2ccc([N+](=O)[O-])cn2)cc1`, the survivor count (dose: 31.3 mg/kg/injection, schedule: Q01DX010 (ip), vehicle: saline) is reported as 6 of 6.

With `COC1C(CO)OC(n2cnc3c(=S)nc(N)[nH]c32)C1O` (centres undefined) the T/C (dose: 264.0 mg/kg/injection, schedule: Q04DX003 (ip), vehicle: saline with Tween-80) was 145 % of control and the T/C [1] was 136 and 147 % of control [5 of 6 alive].

`COc1cc(C=Nc2ccc3c(c2)Cc2ccccc2-3)ccc1O` was tested, and the survivor count (dose: 100.0 mg/kg/injection, schedule: Q04DX003 (ip), vehicle: saline sonified) was 6 of 6.

With `CC(=O)OCC(=O)C1CCC=CC1OC(C)=O` (centres undefined) the survivor count (dose: 25.0 mg/kg/injection, schedule: Q04DX003 (ip), vehicle: saline) was 3 of 6, the survivor count (dose: 50.0 mg/kg/injection, schedule: Q04DX003 (ip), vehicle: saline) was 5 of 6 and the T/C [2] was 127 % of control. For the same compound, the survivor count [2] was 6 of 6 and the survivor count [3] was 5 of 6.

With `OCC1C2CCC(C2)C1CO` (centres undefined) the survivor count (dose: 170.0 mg/kg/injection, schedule: Q01DX009 (ip), vehicle: saline) was 0 of 6, the survivor count (dose: 255.0 mg/kg/injection, schedule: Q01DX001 (ip), vehicle: Klucel (hydroxypropylcellulose) (HPC)) was 2 of 6 and the survivor count (dose: 385.0 mg/kg/injection, schedule: Q01DX001 (ip), vehicle: Klucel (hydroxypropylcellulose) (HPC)) was 1 of 6.

`OCc1cccc(F)c1` was tested, and the survivor count (dose: 400.0 mg/kg/injection, schedule: Q01DX009 (ip), vehicle: saline) was 5 of 6.

With `CS(C)=O.CS(C)=O.[Cl][Sn]([Cl])([Cl])[Cl]` the survivor count (dose: 225.0 mg/kg/injection, schedule: Q01DX009 (ip), vehicle: Klucel (hydroxypropylcellulose) (HPC)) was 4 of 6, the survivor count (dose: 340.0 mg/kg/injection, schedule: Q01DX009 (ip), vehicle: Klucel (hydroxypropylcellulose) (HPC)) was 3 of 6 and the survivor count (dose: 400.0 mg/kg/injection, schedule: Q04DX003 (ip), vehicle: Klucel (hydroxypropylcellulose) (HPC)) was 6 of 6.

For `N=C(N)SCc1cccc([N+](=O)[O-])c1`, the survivor count [4] was 3 of 6.

In the case of `CC1CCCCN1CCCO` (centres undefined), the survivor count [3] is reported as 2 of 6.

For `CCOC(=O)NC1=C(N2CC2C)C(=O)C(NC(=O)OCC)=C(N2CC2C)C1=O` (centres undefined), the T/C (dose: 6.25 mg/kg/injection, schedule: Q01DX001 (ip), vehicle: Klucel (hydroxypropylcellulose) (HPC)) was 126 % of control, the T/C (dose: 12.5 mg/kg/injection, schedule: Q01DX001 (ip), vehicle: Klucel (hydroxypropylcellulose) (HPC)) was 130 % of control and the T/C (dose: 25.0 mg/kg/injection, schedule: Q01DX001 (ip), vehicle: Klucel (hydroxypropylcellulose) (HPC)) was 141 % of control. The survivor count (dose: 50.0 mg/kg/injection, schedule: Q01DX001 (ip), vehicle: Klucel (hydroxypropylcellulose) (HPC)) was 2 of 6 and the survivor count (dose: 100.0 mg/kg/injection, schedule: Q01DX001 (ip), vehicle: Klucel (hydroxypropylcellulose) (HPC)) was 0 of 6.

In the case of `CCCCCCCCCCC[N+](C)(C)CC(O)C[N+](C)(C)CCCCCCCCCCC`, the survivor count [5] is reported as 0 of 6, the survivor count [6] is reported as 0 of 6 and the survivor count [7] is reported as 0 of 6.

With `O=C(Nc1ccc([N+](=O)[O-])cc1)OCC#CC#CCOC(=O)Nc1ccc([N+](=O)[O-])cc1` the survivor count [8] was 3 of 6.

`CN(C)c1ccc(Nc2c3ccccc3nc3ccccc23)cc1` was tested, and the survivor count (dose: 120.0 mg/kg/injection, schedule: Q01DX010 (ip), vehicle: saline) was 6 of 6.

For `COc1cc(C#N)ccc1O`, the survivor count (dose: 400.0 mg/kg/injection, schedule: Q01DX009 (ip), vehicle: gum acacia) was 3 of 6 and the survivor count (dose: 400.0 mg/kg/injection, schedule: Q04DX003 (ip), vehicle: gum acacia) was 6 of 6.

`CC(=O)OC1CC2c3ccccc3C1c1cccc[n+]12` (centres undefined) was tested, and the survivor count (dose: 37.5 mg/kg/injection, schedule: Q01DX009 (ip), vehicle: Klucel (hydroxypropylcellulose) (HPC)) was 6 of 6 and the survivor count (dose: 75.0 mg/kg/injection, schedule: Q01DX009 (ip), vehicle: Klucel (hydroxypropylcellulose) (HPC)) was 3 of 6.

`O=NN(CCF)C(=O)NC12CC3CC(CC(C3)C1)C2` was tested, and the T/C (dose: 6.0 mg/kg/injection, schedule: Q01DX009 (ip), vehicle: Klucel (hydroxypropylcellulose) (HPC)) was 125 % of control, the survivor count (dose: 50.0 mg/kg/injection, schedule: Q01DX009 (ip), vehicle: Klucel (hydroxypropylcellulose) (HPC)) was 4 of 6 and the survivor count (dose: 75.0 mg/kg/injection, schedule: Q04DX003 (ip), vehicle: Klucel (hydroxypropylcellulose) (HPC)) was 1 of 6. The survivor count [4] was 0 of 6, the survivor count [9] was 5 of 6 and the survivor count [8] was 0 of 6. For the same compound, the survivor count (dose: 200.0 mg/kg/injection, schedule: Q04DX003 (ip), vehicle: Klucel (hydroxypropylcellulose) (HPC)) was 2 of 6.

For `NSc1ccc([N+](=O)[O-])cc1`, the survivor count (dose: 200.0 mg/kg/injection, schedule: Q01DX001 (ip), vehicle: other) was 2 of 6 and the survivor count (dose: 400.0 mg/kg/injection, schedule: Q01DX001 (ip), vehicle: other) was 1 of 6.

With `CN(C)C1Cc2ccccc2C1OC(=O)c1ccccc1` (centres undefined) the T/C (dose: 100.0 mg/kg/injection, schedule: Q01DX009 (ip), vehicle: saline) was 126 % of control.

In the case of `Cc1ccc(C(=O)C2CC2)c(C)c1`, the T/C [6] is reported as 125 % of control, the T/C [7] is reported as 135 % of control and the T/C [10] is reported as 135 % of control [4 of 6 alive].

In the case of `CN(Nc1c([N+](=O)[O-])cc([N+](=O)[O-])cc1[N+](=O)[O-])c1cccc2ccccc12`, the survivor count [9] is reported as 6 of 6.

With `CC(=O)NC(Cc1ccc(F)cc1)C(=O)O` (centres undefined) the T/C [6] was 127 % of control and the T/C [10] was 130 % of control.

`CCN(CC)CCNc1ncnc2c1cnn2-c1ccc(Cl)cc1` was tested, and the survivor count [1] was 1 of 6.

`CC(=O)[C@H]1CC[C@H]2[C@@H]3C[C@H](C)C4=CC(=O)CC[C@]4(C)[C@H]3[C@@H](O)C[C@]12C` was tested, and the survivor count [1] was 1 of 6.

`O=NN(CCCl)C(=O)NC1C2CC3CC(C2)CC1C3` (centres undefined) was tested, and the T/C (dose: 5.5 mg/kg/injection, schedule: Q04DX003 (ip), vehicle: other) was 131 % of control.

In the case of `CCOC(=O)CC/C(=C/c1ccccc1)[N+](=O)[O-]`, the survivor count [11] is reported as 5 of 6.

In the case of `C[N+](C)(CCCCOCCCC[N+](C)(C)Cc1ccc([N+](=O)[O-])cc1)Cc1ccc([N+](=O)[O-])cc1`, the survivor count (dose: 0.75 mg/kg/injection, schedule: Q01DX009 (ip), vehicle: saline with Tween-80) is reported as 6 of 6, the survivor count (dose: 3.0 mg/kg/injection, schedule: Q01DX009 (ip), vehicle: saline with Tween-80) is reported as 4 of 6 and the survivor count (dose: 6.0 mg/kg/injection, schedule: Q04DX003 (ip), vehicle: saline with Tween-80) is reported as 0 of 6.

For `COC(=O)CCC(=O)Nc1ccc(C(=O)CBr)cc1`, the survivor count [9] was 4 of 6.

`OCCCN1CNC(=S)NC1` was tested, and the T/C (dose: 50.0 mg/kg/injection, schedule: Q01DX009 (ip), vehicle: saline) was 132 % of control.

In the case of `Cc1ccc2cc3c(ccc4ccccc43)c3c2c1CC3`, the T/C (dose: 11.0 mg/kg/injection, schedule: Q01DX009 (ip), vehicle: saline with Tween-80) is reported as 126 % of control, the T/C (dose: 16.5 mg/kg/injection, schedule: Q01DX009 (ip), vehicle: saline with Tween-80) is reported as 126 % of control and the survivor count (dose: 22.0 mg/kg/injection, schedule: Q01DX009 (ip), vehicle: saline with Tween-80) is reported as 6 of 6. For the same compound, the survivor count (dose: 33.0 mg/kg/injection, schedule: Q01DX009 (ip), vehicle: saline with Tween-80) was 6 of 6, the survivor count [5] was 6 of 6 and the survivor count (dose: 75.0 mg/kg/injection, schedule: Q01DX009 (ip), vehicle: saline with Tween-80) was 6 of 6. The T/C (dose: 150.0 mg/kg/injection, schedule: Q01DX009 (ip), vehicle: saline with Tween-80) was 131 % of control, the T/C [11] was 127 % of control and the T/C [10] was 129 % of control.

With `COC(=O)C(CC(C)C)NC(=O)C(N)Cc1ccc(OCc2ccccc2)cc1` (centres undefined) (H-Tyr(Bn)-Leu-OMe; configuration not given here) the survivor count [6] was 1 of 6, the survivor count [7] was 0 of 6 and the survivor count [11] was 2 of 6.
